Assay results taken from doi:10.1101/323022.
Results are given in words; binding and its absence hold for the method and conditions named. Binding seen in cells or lysates may run through a third protein. Some entries that bind do so weakly or less than the wild type.

Target: T1, Tiam1 (mouse (endogenous in cochlea)), Q60610
T1 chain: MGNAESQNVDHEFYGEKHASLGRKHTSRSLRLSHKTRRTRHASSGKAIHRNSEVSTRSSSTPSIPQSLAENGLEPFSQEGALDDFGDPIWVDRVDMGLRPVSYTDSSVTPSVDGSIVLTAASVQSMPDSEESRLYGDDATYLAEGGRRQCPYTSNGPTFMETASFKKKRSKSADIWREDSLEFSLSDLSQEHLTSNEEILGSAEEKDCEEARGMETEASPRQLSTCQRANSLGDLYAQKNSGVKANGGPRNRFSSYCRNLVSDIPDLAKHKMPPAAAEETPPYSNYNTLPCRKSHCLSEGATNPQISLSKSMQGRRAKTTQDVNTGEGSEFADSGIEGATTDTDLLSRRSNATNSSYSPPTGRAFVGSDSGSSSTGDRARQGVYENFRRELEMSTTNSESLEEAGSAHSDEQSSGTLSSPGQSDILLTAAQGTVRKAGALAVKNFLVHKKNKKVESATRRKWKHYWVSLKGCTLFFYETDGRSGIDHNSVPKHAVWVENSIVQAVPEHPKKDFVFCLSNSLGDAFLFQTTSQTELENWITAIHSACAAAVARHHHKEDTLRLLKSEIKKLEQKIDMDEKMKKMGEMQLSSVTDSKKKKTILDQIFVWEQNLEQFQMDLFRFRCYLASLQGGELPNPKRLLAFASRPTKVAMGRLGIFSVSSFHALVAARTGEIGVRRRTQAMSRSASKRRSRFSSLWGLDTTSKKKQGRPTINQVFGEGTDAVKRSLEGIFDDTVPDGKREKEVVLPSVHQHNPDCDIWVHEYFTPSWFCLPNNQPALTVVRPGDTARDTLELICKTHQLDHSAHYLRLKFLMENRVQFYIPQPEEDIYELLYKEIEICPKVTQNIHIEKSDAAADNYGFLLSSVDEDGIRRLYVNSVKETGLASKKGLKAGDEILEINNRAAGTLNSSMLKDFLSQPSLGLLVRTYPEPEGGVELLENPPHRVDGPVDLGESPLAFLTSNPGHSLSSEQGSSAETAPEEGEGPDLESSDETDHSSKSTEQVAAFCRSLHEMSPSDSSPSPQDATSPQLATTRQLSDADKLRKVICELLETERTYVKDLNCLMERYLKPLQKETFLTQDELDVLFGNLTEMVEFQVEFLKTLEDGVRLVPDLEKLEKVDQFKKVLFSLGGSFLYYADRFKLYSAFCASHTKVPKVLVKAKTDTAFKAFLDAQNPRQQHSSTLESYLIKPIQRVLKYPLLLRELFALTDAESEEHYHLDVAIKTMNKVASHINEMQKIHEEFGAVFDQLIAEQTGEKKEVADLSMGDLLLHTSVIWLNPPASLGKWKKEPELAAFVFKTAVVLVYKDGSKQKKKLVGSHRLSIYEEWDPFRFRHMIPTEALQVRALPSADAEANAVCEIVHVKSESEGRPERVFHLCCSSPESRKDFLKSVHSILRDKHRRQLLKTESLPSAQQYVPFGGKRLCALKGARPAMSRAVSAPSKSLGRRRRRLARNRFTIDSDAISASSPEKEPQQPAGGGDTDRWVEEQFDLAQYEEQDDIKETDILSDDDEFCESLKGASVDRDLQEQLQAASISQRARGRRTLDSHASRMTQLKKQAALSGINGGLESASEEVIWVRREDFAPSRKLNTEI
Assay: co-IP
Conditions: remark: other sources report otherwise

binding: binds
B1: Par3, Q99NH2 1-1333 (protein)
chain: MKVTVCFGRTRVVVPCGDGRMKVFSLIQQAVTRYRKAVAKDPNYWIQVHRLEHGDGGILDLDDILCDVADDKDRLVAVFDEQDPHHGGDGTSASFTGTQSPEIFGSELGTNNVSAFQPYQATSEIEVTPSVLRANMPLHVRRSSDPALTGLSTSVSDNNFSSEEPSRKNPTRWSTTAGFLKQNTAGSPKTCDRKKDENYRSLPRDPSSWSNQFQRDNARSSLSASHPMVDRWLEKQEQDEEGTEEDSSRVEPVGHADTGLENMPNFSLDDMVKLVQVPNDGGPLGIHVVPFSARGGRTLGLLVKRLEKGGKAEQENLFHENDCIVRINDGDLRNRRFEQAQHMFRQAMRARVIWFHVVPAANKEQYEQLSQREKNNYSPGRFSPDSHCVANRSVANNAPQALPRAPRLSQPPEQLDAHPRLPHSAHASTKPPAAPALAPPSVLSTNVGSVYNTKKVGKRLNIQLKKGTEGLGFSITSRDVTIGGSAPIYVKNILPRGAAIQDGRLKAGDRLIEVNGVDLAGKSQEEVVSLLRSTKMEGTVSLLVFRQEEAFHPREMNAEPSQMQTPKETKAEDEDVVLTPDGTREFLTFEVPLNDSGSAGLGVSVKGNRSKENHADLGIFVKSIINGGAASKDGRLRVNDQLIAVNGESLLGKANQEAMETLRRSMSTEGNKRGMIQLIVARRISRCNELRSPGSPAAPELPIETELDDRERRISHSLYSGIEGLDESPTRNAALSRIMGKCQLSPTVNMPHDDTVMIEDDRLPVLPPHLSDQSSSSSHDDVGFIMTEAGTWAKATISDSADCSLSPDVDPVLAFQREGFGRQSMSEKRTKQFSDASQLDFVKTRKSKSMDLVADETKLNTVDDQRAGSPSRDVGPSLGLKKSSSLESLQTAVAEVTLNGNIPFHRPRPRIIRGRGCNESFRAAIDKSYDKPMVDDDDEGMETLEEDTEESSRSGRESVSTSSDQPSYSLERQMNGDPEKRDKTERKKDKAGKDKKKDREKEKDKLKAKKGMLKGLGDMFRFGKHRKDDKMEKMGRIKIQDSFTSEEDRVRMKEEQERIQAKTREFRERQARERDYAEIQDFHRTFGCDDELLYGGMSSYEGCLALNARPQSPREGHLMDTLYAQVKKPRSSKPGDSNRSTPSNHDRIQRLRQEFQQAKQDEDVEDRRRTYSFEQSWSSSRPASQSGRHSVSVEVQVQRQRQEERESFQQAQRQYSSLPRQSRKNASSISQDSWEQNYAPGEGFQSAKENPRYSSYQGSRNGYLGGHGFNARVMLETQELLRQEQRRKEQQLKKQPPADGVRGPFRQDVPPSPSQVARLNRLQTPEKGRPFYS
